Data reported in the supplement of paper PMC8728848.
Some of the results follow.

Key:
Test in all cases: glycan array binding signal (z-score within array); higher = stronger binding
Conditions in all cases: glycan notation: IUPAC condensed, linker removed
[1] = molecular target: Man(a1-2)Man(a1-6)[Man(a1-3)]Man(a1-6)[Man(a1-2)Man(a1-2)Man(a1-3)]Man
How it was run: (§1)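 The binding signal is a Z-score computed within each array. Data were drawn from 3228 arrays in the Consortium for Functional Glycomics database, restricted to those with a known protein sequence. Scores were averaged over arrays of the same protein sequence at different concentrations or buffers, and over linkers, and negative values can be taken as non-binding.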

[2] = molecular target: Man(a1-2)Man(a1-6)[Man(a1-3)]Man(a1-6)[Man(a1-2)Man(a1-2)Man(a1-3)]Man(b1-4)GlcNAc(b1-4)GlcNAc
How it was run: as §1

Man(a1-3)[Man(a1-6)]Man = molecular target: Man(a1-3)[Man(a1-6)]Man
How it was run: as §1

[3] = molecular target: Man(a1-3)[Man(a1-6)]Man(a1-6)[Man(a1-2)Man(a1-3)]Man(b1-4)GlcNAc(b1-4)GlcNAc
How it was run: as §1

[4] = molecular target: Man(a1-3)[Man(a1-6)]Man(a1-6)[Man(a1-3)]Man
How it was run: as §1

[5] = molecular target: Man(a1-3)[Man(a1-6)]Man(a1-6)[Man(a1-3)]Man(b1-4)GlcNAc(b1-4)GlcNAc
How it was run: as §1

[6] = molecular target: Man(a1-3)[Man(a1-6)]Man(b1-4)GlcNAc(b1-4)GlcNAc
How it was run: as §1

[7] = molecular target: Man(a1-3)[Man(a1-6)]Man(b1-4)GlcNAc(b1-4)[Fuc(a1-6)]GlcNAc
How it was run: as §1

Man(a1-6)Man = molecular target: Man(a1-6)Man
How it was run: as §1

Man(b1-4)GlcNAc = molecular target: Man(b1-4)GlcNAc
How it was run: as §1

MurNAc(b1-4)GlcNAc = molecular target: MurNAc(b1-4)GlcNAc
How it was run: as §1

Neu5Ac(a2-3)Gal = molecular target: Neu5Ac(a2-3)Gal
How it was run: as §1

[8] = molecular target: Neu5Ac(a2-3)Gal(b1-3)GalNAc
How it was run: as §1

[9] = molecular target: Neu5Ac(a2-3)Gal(b1-3)GalNAc(b1-3)Gal(a1-4)Gal(b1-4)Glc
How it was run: as §1

[10] = molecular target: Neu5Ac(a2-3)Gal(b1-3)GalNAc(b1-4)Gal(b1-4)Glc
How it was run: as §1

[11] = molecular target: Neu5Ac(a2-3)Gal(b1-3)GalNAc(b1-4)[Neu5Ac(a2-3)]Gal(b1-4)Glc
How it was run: as §1

[12] = molecular target: Neu5Ac(a2-3)Gal(b1-3)GalNAc(b1-4)[Neu5Ac(a2-8)Neu5Ac(a2-3)]Gal(b1-4)Glc
How it was run: as §1

[13] = molecular target: Neu5Ac(a2-3)Gal(b1-3)GalNAc6S
How it was run: as §1

[14] = molecular target: Neu5Ac(a2-3)Gal(b1-3)GlcNAc
How it was run: as §1

[15] = molecular target: Neu5Ac(a2-3)Gal(b1-3)GlcNAc(b1-2)Man
How it was run: as §1

[16] = molecular target: Neu5Ac(a2-3)Gal(b1-3)GlcNAc(b1-2)Man(a1-3)[GlcNAc(b1-4)][Neu5Ac(a2-3)Gal(b1-3)GlcNAc(b1-2)Man(a1-6)]Man(b1-4)GlcNAc(b1-4)GlcNAc
How it was run: as §1

[17] = molecular target: Neu5Ac(a2-3)Gal(b1-3)GlcNAc(b1-2)Man(a1-3)[Neu5Ac(a2-3)Gal(b1-3)GlcNAc(b1-2)Man(a1-6)]Man(b1-4)GlcNAc(b1-4)GlcNAc
How it was run: as §1

[18] = molecular target: Neu5Ac(a2-3)Gal(b1-3)GlcNAc(b1-2)[Neu5Ac(a2-3)Gal(b1-3)GlcNAc(b1-4)]Man(a1-6)[Neu5Ac(a2-3)Gal(b1-3)GlcNAc(b1-2)Man(a1-3)]Man(b1-4)GlcNAc(b1-4)GlcNAc
How it was run: as §1

[19] = molecular target: Neu5Ac(a2-3)Gal(b1-3)GlcNAc(b1-3)Gal(b1-3)GlcNAc
How it was run: as §1

[20] = molecular target: Neu5Ac(a2-3)Gal(b1-3)GlcNAc(b1-3)Gal(b1-4)GlcNAc
How it was run: as §1

[21] = molecular target: Neu5Ac(a2-3)Gal(b1-3)GlcNAc(b1-3)GalNAc
How it was run: as §1

[22] = molecular target: Neu5Ac(a2-3)Gal(b1-3)GlcNAc(b1-6)GalNAc
How it was run: as §1

[23] = molecular target: Neu5Ac(a2-3)Gal(b1-3)GlcNAc6S
How it was run: as §1

[24] = molecular target: Neu5Ac(a2-3)Gal(b1-3)[Fuc(a1-4)]GlcNAc
How it was run: as §1

[25] = molecular target: Neu5Ac(a2-3)Gal(b1-3)[Fuc(a1-4)]GlcNAc(b1-3)Gal(b1-3)[Fuc(a1-4)]GlcNAc
How it was run: as §1

[26] = molecular target: Neu5Ac(a2-3)Gal(b1-3)[Fuc(a1-4)]GlcNAc(b1-3)Gal(b1-4)[Fuc(a1-3)]GlcNAc
How it was run: as §1

[27] = molecular target: Neu5Ac(a2-3)Gal(b1-3)[GlcNAc(b1-6)]GalNAc
How it was run: as §1

[28] = molecular target: Neu5Ac(a2-3)Gal(b1-3)[Neu5Ac(a2-3)Gal(b1-4)]GlcNAc
How it was run: as §1

[29] = molecular target: Neu5Ac(a2-3)Gal(b1-3)[Neu5Ac(a2-6)]GalNAc
How it was run: as §1

[30] = molecular target: Neu5Ac(a2-3)Gal(b1-3)[Neu5Ac(a2-6)]GlcNAc(b1-3)[Fuc(a1-3)[Gal(b1-4)]GlcNAc(b1-6)]Gal(b1-4)Glc
How it was run: as §1

[31] = molecular target: Neu5Ac(a2-3)Gal(b1-3)]Neu5Ac(a2-3)Gal(b1-4)]GlcNAc
How it was run: as §1

Neu5Ac(a2-3)Gal(b1-4)Glc = molecular target: Neu5Ac(a2-3)Gal(b1-4)Glc
How it was run: as §1

[32] = molecular target: Neu5Ac(a2-3)Gal(b1-4)GlcNAc
How it was run: as §1

B1: GST-Gap1 (Streptococcus parasanguinis), A1C3L5 (protein)
chain: MFYFVPSWYNGQRQWYYDTPWWFRVKNRMTFDDSVNQVKMFLQGQEEIGLMILNYQPQLRYFLHKQNIFGIYYWSFFDDIQNITRSYTKIIHLKDLNWPEGCEFLYSPFAVVVRLKGEIFAIVNYAEDGNLHSVSFQKNGKVTKDYIFDDRGFLSSILYYDIDERPLYQDYLNINGVWQVREFLKKENDPTPILMINDFSDQTFSKKYYNGWEELIKERLAIFQNNHVENEDVFVLASDTQHNQLVSSIFKEHRKIYSFFGNRFNLENLGQDRISINDATFLVVDTEKNEELLRKTCENLVFKSIPIVRLSPFDSRLRLGHSQTVKEQIIYFHIDNIELDELYSVIAIILELMTLHLDIELRIVTFRQDFQLDLLKTWIIDFIKTNHFEDLLFKQISEGENEIEDEGEIELSRIAMECFTNENQIIKCLDTARLVIDLGIEPDLYTQIASISAGIPQINRVSSDYVIHQKNGLVISDISKLSSAIEFYFDGLFNWNEALIYAVRKMSDYTSGKILKQWKGMLKKK
- glycan array binding signal (z-score) [1]: -0.089
- glycan array binding signal (z-score) [2]: 0.949
- glycan array binding signal (z-score) (Man(a1-3)[Man(a1-6)]Man): -0.075
- glycan array binding signal (z-score) [3]: -0.26
- glycan array binding signal (z-score) [4]: -0.551
- glycan array binding signal (z-score) [5]: -0.833
- glycan array binding signal (z-score) [6]: -0.02
- glycan array binding signal (z-score) [7]: -0.278
- glycan array binding signal (z-score) (Man(a1-6)Man): -0.434
- glycan array binding signal (z-score) (Man(b1-4)GlcNAc): 0.1
- glycan array binding signal (z-score) (MurNAc(b1-4)GlcNAc): -0.969
- glycan array binding signal (z-score) (Neu5Ac(a2-3)Gal): -0.63
- glycan array binding signal (z-score) [8]: -0.131
- glycan array binding signal (z-score) [9]: -0.09
- glycan array binding signal (z-score) [10]: -1.17
- glycan array binding signal (z-score) [11]: 0.006
- glycan array binding signal (z-score) [12]: 0.39
- glycan array binding signal (z-score) [13]: 0.574
- glycan array binding signal (z-score) [14]: 0.358
- glycan array binding signal (z-score) [15]: -1.71
- glycan array binding signal (z-score) [16]: 0.543
- glycan array binding signal (z-score) [17]: 0.586
- glycan array binding signal (z-score) [18]: -0.232
- glycan array binding signal (z-score) [19]: 0.236
- glycan array binding signal (z-score) [20]: -0.384
- glycan array binding signal (z-score) [21]: -0.639
- glycan array binding signal (z-score) [22]: -0.146
- glycan array binding signal (z-score) [23]: -0.022
- glycan array binding signal (z-score) [24]: -0.095
- glycan array binding signal (z-score) [25]: 0.962
- glycan array binding signal (z-score) [26]: 0.401
- glycan array binding signal (z-score) [27]: 0.718
- glycan array binding signal (z-score) [28]: -0.488
- glycan array binding signal (z-score) [29]: -0.12
- glycan array binding signal (z-score) [30]: 0.501
- glycan array binding signal (z-score) [31]: 0.058
- glycan array binding signal (z-score) (Neu5Ac(a2-3)Gal(b1-4)Glc): -0.169
- glycan array binding signal (z-score) [32]: -0.392
